The supplement of paper PMC10849652
The other results are listed elsewhere or left out.

Sequences of proteins named here, by UniProt entry; tags and fusion partners are left off. A change or cut given only in a name is not applied to a line headed by its entry.
UniProt Q96BR5: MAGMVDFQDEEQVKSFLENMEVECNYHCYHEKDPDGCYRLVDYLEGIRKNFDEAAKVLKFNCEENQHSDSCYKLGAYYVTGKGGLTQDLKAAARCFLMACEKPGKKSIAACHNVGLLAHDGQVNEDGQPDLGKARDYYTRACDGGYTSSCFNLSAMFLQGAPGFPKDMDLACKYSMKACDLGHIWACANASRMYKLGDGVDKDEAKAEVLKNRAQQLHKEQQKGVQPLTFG
UniProt Q9NRG0: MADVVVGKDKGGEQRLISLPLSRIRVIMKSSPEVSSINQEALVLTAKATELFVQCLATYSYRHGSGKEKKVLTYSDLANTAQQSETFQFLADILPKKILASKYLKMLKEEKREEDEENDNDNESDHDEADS
UniProt Q9NY35: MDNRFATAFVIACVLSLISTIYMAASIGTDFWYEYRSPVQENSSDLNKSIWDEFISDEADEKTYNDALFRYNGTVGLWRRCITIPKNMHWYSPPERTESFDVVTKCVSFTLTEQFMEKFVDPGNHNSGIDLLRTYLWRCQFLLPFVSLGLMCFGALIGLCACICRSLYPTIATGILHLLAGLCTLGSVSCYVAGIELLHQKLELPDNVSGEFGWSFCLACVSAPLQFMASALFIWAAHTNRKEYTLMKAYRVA
UniProt P02452, whole entry, looked up: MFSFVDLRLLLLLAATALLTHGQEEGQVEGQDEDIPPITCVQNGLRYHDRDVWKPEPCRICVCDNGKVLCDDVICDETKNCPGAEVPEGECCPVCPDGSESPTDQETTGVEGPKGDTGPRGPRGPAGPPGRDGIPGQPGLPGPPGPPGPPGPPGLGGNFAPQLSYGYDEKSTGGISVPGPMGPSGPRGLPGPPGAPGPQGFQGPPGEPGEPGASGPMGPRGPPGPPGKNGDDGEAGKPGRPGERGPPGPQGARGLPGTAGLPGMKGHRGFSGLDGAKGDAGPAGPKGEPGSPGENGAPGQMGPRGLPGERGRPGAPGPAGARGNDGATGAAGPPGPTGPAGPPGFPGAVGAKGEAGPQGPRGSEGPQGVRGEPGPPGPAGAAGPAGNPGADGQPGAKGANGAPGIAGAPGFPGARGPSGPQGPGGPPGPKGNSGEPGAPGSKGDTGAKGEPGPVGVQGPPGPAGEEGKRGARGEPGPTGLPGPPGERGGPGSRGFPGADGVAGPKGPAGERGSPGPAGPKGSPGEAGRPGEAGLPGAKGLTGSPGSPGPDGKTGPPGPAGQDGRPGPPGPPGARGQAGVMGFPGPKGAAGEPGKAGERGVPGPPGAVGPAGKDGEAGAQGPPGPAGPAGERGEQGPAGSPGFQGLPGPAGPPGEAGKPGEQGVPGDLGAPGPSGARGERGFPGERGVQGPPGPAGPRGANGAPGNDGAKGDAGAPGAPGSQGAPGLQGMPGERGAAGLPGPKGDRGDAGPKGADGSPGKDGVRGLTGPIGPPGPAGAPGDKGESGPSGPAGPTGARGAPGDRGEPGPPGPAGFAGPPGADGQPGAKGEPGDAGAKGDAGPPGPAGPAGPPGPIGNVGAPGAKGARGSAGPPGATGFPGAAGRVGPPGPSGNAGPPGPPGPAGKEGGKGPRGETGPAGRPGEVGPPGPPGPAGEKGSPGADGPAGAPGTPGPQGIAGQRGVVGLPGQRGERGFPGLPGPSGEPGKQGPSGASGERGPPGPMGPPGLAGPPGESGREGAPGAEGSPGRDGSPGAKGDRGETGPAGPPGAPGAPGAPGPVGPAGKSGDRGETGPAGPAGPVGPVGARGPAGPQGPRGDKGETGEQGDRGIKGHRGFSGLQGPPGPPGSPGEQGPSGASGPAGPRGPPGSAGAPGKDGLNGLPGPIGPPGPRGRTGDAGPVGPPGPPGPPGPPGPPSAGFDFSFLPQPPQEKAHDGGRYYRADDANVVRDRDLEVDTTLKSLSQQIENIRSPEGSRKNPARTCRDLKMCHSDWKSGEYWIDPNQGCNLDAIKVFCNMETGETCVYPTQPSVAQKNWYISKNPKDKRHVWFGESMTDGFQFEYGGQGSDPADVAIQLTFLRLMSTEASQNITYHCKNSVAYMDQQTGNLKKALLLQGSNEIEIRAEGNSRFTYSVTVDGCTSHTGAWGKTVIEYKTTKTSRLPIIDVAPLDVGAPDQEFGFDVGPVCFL
UniProt P12277: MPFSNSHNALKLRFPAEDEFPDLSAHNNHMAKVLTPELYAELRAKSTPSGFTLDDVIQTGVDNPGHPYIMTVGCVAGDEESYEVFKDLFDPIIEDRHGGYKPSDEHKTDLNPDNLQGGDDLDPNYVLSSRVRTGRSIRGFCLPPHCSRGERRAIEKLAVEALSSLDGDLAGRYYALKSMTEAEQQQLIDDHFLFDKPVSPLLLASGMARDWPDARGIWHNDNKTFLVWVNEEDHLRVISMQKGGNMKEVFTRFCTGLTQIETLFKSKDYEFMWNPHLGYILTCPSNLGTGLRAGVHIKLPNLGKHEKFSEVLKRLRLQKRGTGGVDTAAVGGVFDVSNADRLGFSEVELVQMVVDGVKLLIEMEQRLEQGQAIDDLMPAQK
UniProt Q96FZ7: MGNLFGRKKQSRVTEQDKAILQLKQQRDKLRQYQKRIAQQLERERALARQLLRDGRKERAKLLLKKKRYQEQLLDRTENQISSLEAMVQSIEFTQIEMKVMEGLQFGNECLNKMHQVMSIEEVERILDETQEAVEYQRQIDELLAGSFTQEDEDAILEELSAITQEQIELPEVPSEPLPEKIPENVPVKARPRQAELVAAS
UniProt Q2KHT3: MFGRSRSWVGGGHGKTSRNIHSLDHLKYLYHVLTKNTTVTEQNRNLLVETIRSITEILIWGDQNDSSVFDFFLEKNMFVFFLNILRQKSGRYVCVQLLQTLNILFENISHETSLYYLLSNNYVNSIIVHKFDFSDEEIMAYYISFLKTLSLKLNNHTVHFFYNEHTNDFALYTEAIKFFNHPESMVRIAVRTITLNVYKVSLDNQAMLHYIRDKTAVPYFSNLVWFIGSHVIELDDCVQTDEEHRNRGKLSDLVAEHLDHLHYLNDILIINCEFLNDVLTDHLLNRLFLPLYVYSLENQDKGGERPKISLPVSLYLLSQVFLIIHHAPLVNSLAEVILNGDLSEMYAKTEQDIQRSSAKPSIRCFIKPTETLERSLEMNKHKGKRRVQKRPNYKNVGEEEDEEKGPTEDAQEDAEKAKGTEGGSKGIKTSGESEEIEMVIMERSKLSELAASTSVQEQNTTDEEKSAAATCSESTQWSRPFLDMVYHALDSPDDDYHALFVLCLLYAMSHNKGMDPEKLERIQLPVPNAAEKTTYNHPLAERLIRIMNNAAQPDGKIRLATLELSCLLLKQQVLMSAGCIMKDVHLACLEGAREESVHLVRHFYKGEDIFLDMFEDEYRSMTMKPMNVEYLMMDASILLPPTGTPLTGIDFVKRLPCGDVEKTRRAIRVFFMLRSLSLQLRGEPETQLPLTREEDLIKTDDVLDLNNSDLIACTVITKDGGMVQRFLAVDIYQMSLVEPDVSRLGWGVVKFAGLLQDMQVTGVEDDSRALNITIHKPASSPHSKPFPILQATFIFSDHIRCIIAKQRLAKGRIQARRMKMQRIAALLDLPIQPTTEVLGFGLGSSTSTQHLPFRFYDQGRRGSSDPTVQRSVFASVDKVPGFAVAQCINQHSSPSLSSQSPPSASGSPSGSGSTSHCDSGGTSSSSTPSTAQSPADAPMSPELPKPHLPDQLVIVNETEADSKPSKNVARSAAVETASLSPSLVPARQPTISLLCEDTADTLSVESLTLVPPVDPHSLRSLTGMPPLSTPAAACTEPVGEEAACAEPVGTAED
UniProt Q8WUX9: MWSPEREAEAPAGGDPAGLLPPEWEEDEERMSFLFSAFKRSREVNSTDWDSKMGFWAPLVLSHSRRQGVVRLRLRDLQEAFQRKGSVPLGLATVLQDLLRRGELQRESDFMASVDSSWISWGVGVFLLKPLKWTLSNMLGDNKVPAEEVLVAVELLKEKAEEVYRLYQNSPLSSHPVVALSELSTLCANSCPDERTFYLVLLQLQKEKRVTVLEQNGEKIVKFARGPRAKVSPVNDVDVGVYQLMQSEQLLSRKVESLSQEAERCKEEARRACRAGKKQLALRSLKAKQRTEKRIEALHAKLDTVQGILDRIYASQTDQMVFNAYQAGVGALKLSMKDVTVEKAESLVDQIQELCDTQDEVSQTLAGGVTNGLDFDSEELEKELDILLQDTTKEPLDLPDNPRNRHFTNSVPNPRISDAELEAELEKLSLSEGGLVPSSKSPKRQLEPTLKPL
UniProt Q9H9A5, whole entry, looked up: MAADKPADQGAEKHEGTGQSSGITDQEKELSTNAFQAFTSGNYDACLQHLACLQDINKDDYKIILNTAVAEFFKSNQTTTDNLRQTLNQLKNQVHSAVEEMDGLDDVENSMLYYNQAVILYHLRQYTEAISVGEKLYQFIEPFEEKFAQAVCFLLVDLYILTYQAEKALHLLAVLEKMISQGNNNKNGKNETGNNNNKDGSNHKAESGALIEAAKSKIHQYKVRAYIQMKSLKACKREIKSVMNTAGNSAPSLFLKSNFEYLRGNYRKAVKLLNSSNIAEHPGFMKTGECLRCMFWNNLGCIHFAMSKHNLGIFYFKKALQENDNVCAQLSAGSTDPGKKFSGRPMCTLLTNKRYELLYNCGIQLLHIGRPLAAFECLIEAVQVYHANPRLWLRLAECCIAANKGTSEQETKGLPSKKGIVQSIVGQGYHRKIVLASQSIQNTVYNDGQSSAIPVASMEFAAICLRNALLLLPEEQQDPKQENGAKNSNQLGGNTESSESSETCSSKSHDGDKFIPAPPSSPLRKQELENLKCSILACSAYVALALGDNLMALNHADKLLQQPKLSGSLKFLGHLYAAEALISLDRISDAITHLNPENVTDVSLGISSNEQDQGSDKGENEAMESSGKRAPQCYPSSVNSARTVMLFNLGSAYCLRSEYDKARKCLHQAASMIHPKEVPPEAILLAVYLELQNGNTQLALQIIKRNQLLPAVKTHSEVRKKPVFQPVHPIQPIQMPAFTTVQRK
UniProt O43529: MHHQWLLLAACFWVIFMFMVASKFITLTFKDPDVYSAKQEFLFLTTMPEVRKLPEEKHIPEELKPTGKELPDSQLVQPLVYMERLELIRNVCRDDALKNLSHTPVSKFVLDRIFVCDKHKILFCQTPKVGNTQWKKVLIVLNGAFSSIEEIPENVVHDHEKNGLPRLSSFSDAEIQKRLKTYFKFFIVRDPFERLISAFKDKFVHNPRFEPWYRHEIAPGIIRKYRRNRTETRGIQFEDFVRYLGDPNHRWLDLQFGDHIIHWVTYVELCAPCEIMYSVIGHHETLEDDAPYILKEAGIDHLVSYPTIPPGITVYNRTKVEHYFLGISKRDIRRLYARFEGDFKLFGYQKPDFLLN
UniProt Q9NYJ1, whole entry, looked up: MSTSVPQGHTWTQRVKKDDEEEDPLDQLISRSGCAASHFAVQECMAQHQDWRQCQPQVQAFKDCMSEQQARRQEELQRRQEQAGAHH
UniProt Q99439: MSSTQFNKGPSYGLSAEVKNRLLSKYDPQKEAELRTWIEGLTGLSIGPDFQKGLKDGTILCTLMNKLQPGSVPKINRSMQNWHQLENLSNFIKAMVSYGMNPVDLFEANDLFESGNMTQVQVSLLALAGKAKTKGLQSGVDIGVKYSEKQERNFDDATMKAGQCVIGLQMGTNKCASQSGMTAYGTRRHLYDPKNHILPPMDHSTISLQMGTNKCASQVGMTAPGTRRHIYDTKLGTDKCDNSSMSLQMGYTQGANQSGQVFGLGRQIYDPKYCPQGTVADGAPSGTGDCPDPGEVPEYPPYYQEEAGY
UniProt P51797: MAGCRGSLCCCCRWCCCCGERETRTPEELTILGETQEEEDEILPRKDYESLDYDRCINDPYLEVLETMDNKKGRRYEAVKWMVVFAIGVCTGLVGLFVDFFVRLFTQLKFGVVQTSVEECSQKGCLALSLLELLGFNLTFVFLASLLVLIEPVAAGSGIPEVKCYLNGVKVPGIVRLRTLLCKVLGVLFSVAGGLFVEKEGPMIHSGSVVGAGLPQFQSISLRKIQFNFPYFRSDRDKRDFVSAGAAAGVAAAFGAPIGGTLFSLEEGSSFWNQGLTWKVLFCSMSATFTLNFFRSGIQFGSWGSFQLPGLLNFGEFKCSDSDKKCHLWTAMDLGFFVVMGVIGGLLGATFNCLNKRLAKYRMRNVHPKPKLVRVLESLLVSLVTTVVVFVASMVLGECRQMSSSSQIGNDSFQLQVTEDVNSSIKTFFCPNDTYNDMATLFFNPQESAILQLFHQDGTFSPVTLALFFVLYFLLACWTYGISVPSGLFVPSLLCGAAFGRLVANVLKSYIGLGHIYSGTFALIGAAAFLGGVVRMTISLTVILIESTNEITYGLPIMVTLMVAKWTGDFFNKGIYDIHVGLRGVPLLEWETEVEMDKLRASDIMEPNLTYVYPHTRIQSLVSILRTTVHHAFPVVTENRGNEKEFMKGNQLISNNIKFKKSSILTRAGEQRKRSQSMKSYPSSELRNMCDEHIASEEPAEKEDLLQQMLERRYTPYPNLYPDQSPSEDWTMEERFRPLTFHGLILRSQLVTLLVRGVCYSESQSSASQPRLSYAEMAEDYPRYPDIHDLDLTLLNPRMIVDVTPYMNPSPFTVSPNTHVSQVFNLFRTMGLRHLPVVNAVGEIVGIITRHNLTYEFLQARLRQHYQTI

Assays:
Test in all cases: log2 fold change, soluble protein after heating vs DMSO (PISA); higher = thermal stabilisation; K562 cells, 10 uM, 30 min; active = over 0.2 and 3.5 SD of the protein, either way, in both replicates (recomputed)
[1] = compound: CC1=C(C=C(C=C1)NC(=O)C2=CC(=CC=C2)C(C)(C)C#N)NC3=CC4=C(C=C3)N=CN(C4=O)C
Procedure, shortened: (§1)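 For each measurement, 10 μM compound was applied for 30 min to K562 cells at 2×10^6 cells/mL. Aliquots were heated for 3 min across 48°C-58°C, pooled, and extracted in PBS with 0.5% NP-40 at 4°C; the supernatant after 21,000xg for 90 min was soluble protein. This was quantified by TMTpro 16plex LC-MS/MS with channel sums equalised, and thermal stability was reported relative to control samples from duplicates, on a log2 fold-change scale.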

[2] = compound: CC1=C(C=C(C=C1)NC(=O)C2=CC(=CC=C2)N(C)C)NC(=O)C3=CC=C(C=C3)O
Procedure, shortened: as §1

[3] = compound: CC1=CC=C(C=C1)SC2=C3C=C(SC3=CN=C2)C(=O)N
Procedure, shortened: as §1

[4] = compound: CC1=NC(=CC=C1)C2=C(N=C(N2)C(C)(C)C)C3=CC4=NC=CN=C4C=C3
Procedure, shortened: as §1

Nexturastat A = compound: CCCCN(Cc1ccc(C(=O)NO)cc1)C(=O)Nc1ccccc1 [Nexturastat A]
Procedure, shortened: as §1

vemurafenib = compound: CCCS(=O)(=O)Nc1ccc(F)c(C(=O)c2c[nH]c3ncc(-c4ccc(Cl)cc4)cc23)c1F [vemurafenib]
Procedure, shortened: as §1

[5] = compound: CCCS(=O)(=O)Nc1ccc(F)c(C(=O)c2c[nH]c3ncc(Cl)cc23)c1F
Procedure, shortened: as §1

[6] = compound: CCCc1cc(C)[nH]c(=O)c1CNC(=O)c1cc(-c2ccnc(N3CCN(C)CC3)c2)cc2c1cnn2C(C)C
Procedure, shortened: as §1

givinostat = compound: CCN(CC)Cc1ccc2cc(COC(=O)Nc3ccc(C(=O)NO)cc3)ccc2c1 [givinostat]
Procedure, shortened: as §1

barasertib = compound: CCN(CCCOc1ccc2c(Nc3cc(CC(=O)Nc4cccc(F)c4)[nH]n3)ncnc2c1)CCOP(=O)(O)O [barasertib]
Procedure, shortened: as §1

Measured: log2 fold change

COA1 (UniProt Q9GZY4)
inactive: [1] -0.028 | [2] 0.018 | [3] 0.008 | [4] -0.006 | Nexturastat A -0.014 | vemurafenib -0.049 | [5] 0.006 | [6] -0.032 | givinostat -0.004 | barasertib 0.016

COA7 (UniProt Q96BR5)
inactive: [1] -0.003 | [2] -0.005 | [3] 0.081 | [4] 0.047 | Nexturastat A -0.11 | vemurafenib -0.013 | [5] 0.096 | [6] -0.112 | givinostat -0.081 | barasertib 0.027

CMTM6 (UniProt Q9NX76)
inactive: [1] -0.039 | [2] -0.067 | [3] -0.19 | [4] -0.036 | Nexturastat A -0.043 | vemurafenib -0.229 | [5] 0.171 | [6] -0.104 | givinostat 0.026 | barasertib 0.003

CHRAC1 (UniProt Q9NRG0)
inactive: [1] 0.062 | [2] 0.002 | [3] 0.103 | [4] 0.122 | Nexturastat A -0.251 | vemurafenib 0.113 | [5] 0.124 | [6] -0.007 | givinostat -0.062 | barasertib 0.013

CKAP5 (UniProt Q14008)
inactive: [1] 0.005 | [2] -0.028 | [3] 0.02 | [4] -0.017 | Nexturastat A 0.23 | vemurafenib 0.054 | [5] 0.094 | [6] 0.065 | givinostat 0.075 | barasertib 0.049

CLPTM1L (UniProt Q96KA5)
inactive: [1] -0.014 | [2] 0.01 | [3] 0.03 | [4] 0.022 | Nexturastat A -0.032 | vemurafenib 0.045 | [5] 0.016 | [6] -0.015 | givinostat 0.009 | barasertib 0.021

CLASP1 (UniProt Q7Z460)
inactive: [1] 0.003 | [2] -0.01 | [3] 0.01 | [4] 0.031 | Nexturastat A 0.129 | vemurafenib 0.052 | [5] 0.1 | [6] 0.026 | givinostat 0.08 | barasertib 0.08

CKAP2 (UniProt Q8WWK9)
inactive: [1] -0.023 | [2] 0.125 | [3] -0.095 | [4] -0.163 | Nexturastat A 0.402 | [5] -0.019 | [6] 0.204 | givinostat 0.156

CLDND1 (UniProt Q9NY35)
inactive: [1] 0.085 | [2] -0.06 | [3] -0.065 | [4] -0.046 | Nexturastat A 0.01 | vemurafenib -0.089 | [5] -0.11 | [6] -0.066 | givinostat -0.03 | barasertib 0.023

COL1A1 (UniProt P02452)
inactive: [1] -0.215 | [2] 0.567 | [3] -0.098 | [4] -0.194 | Nexturastat A 0.079 | vemurafenib -0.189 | [5] -0.401 | givinostat -0.151 | barasertib -0.036

CKMT1A (UniProt P12532)
inactive: [1] -0.068 | [2] 0.02 | [3] -0.042 | [4] -0.036 | Nexturastat A 0.019 | vemurafenib -0.011 | [5] -0.023 | [6] 0.066 | givinostat -0.061 | barasertib -0.028

CKB (UniProt P12277)
inactive: [1] 0.016 | [2] -0.006 | [3] -0.008 | [4] 0.016 | Nexturastat A -0.032 | vemurafenib 0 | [5] 0.015 | [6] -0.016 | givinostat -0.013 | barasertib -0.002

CNOT6L (UniProt Q96LI5)
inactive: [1] -0.047 | [2] 0.028 | [3] -0.02 | [4] -0.054 | Nexturastat A 0 | vemurafenib 0.028 | [5] 0 | [6] -0.02 | givinostat -0.016 | barasertib 0.015

CLPTM1 (UniProt O96005)
inactive: [1] 0.011 | [2] 0.001 | [3] 0.006 | [4] -0.042 | Nexturastat A -0.041 | vemurafenib -0.021 | [5] -0.001 | [6] 0.118 | givinostat 0.018 | barasertib -0.016

CHMP6 (UniProt Q96FZ7)
inactive: [1] 0.094 | [2] 0.004 | [3] -0.012 | [4] 0.002 | Nexturastat A -0.034 | vemurafenib 0.015 | [5] 0.022 | [6] 0.072 | givinostat -0.003 | barasertib -0.006

CMAS (UniProt Q8NFW8)
inactive: [1] -0.004 | [2] -0.04 | [3] -0.056 | [4] -0.054 | Nexturastat A 0.138 | vemurafenib -0.016 | [5] -0.013 | [6] 0.093 | givinostat 0.019 | barasertib -0.092

CLEC16A (UniProt Q2KHT3)
inactive: [1] -0.035 | [2] -0.018 | [3] -0.037 | [4] 0.05 | Nexturastat A -0.052 | vemurafenib -0.054 | [5] -0.08 | [6] 0.028 | givinostat 0.016 | barasertib -0.018

CHMP7 (UniProt Q8WUX9)
inactive: [1] -0.098 | [2] -0.061 | [3] 0.122 | [4] 0.082 | Nexturastat A 0.064 | [5] 0.279 | [6] 0.091 | givinostat 0.065 | barasertib 0.032

CNOT10 isoform 6 (UniProt Q9H9A5)
inactive: [1] -0.027 | [2] -0.017 | [3] -0.015 | [4] 0.004 | Nexturastat A 0.148 | vemurafenib 0.009 | [5] 0.016 | [6] 0 | givinostat 0.1 | barasertib -0.009

CHURC1-FNTB (UniProt B4DL54)
inactive: [1] -0.071 | [2] -0.034 | [3] 0.014 | [4] -0.02 | Nexturastat A -0.04 | vemurafenib 0.04 | [5] 0.042 | [6] -0.113 | givinostat -0.08 | barasertib -0.011

CMPK1 (UniProt P30085)
inactive: [1] 0.011 | [2] 0.004 | [3] -0.004 | [4] 0.022 | Nexturastat A -0.01 | vemurafenib 0.068 | [5] 0.004 | [6] -0.068 | givinostat -0.007 | barasertib -0.001

2 entries picked at random from the list so far, as already listed:
CNOT10 isoform 6 (UniProt Q9H9A5)
inactive: [1] -0.027 | [2] -0.017 | [3] -0.015 | [4] 0.004 | Nexturastat A 0.148 | vemurafenib 0.009 | [5] 0.016 | [6] 0 | givinostat 0.1 | barasertib -0.009

CLEC16A (UniProt Q2KHT3)
inactive: [1] -0.035 | [2] -0.018 | [3] -0.037 | [4] 0.05 | Nexturastat A -0.052 | vemurafenib -0.054 | [5] -0.08 | [6] 0.028 | givinostat 0.016 | barasertib -0.018

Further records follow:

CHST10 (UniProt O43529)
inactive: [1] 0.067 | [2] -0.096 | [3] -0.092 | [4] -0.052 | Nexturastat A 0.05 | [5] -0.015 | [6] -0.097 | givinostat 0.069 | barasertib -0.025

CLPX (UniProt O76031)
inactive: [1] 0.022 | [2] -0.013 | [3] -0.008 | [4] 0.012 | Nexturastat A 0 | vemurafenib -0.011 | [5] -0.013 | [6] -0.002 | givinostat 0.02 | barasertib -0.013

CIAO3 (UniProt Q9H6Q4)
inactive: [1] -0.023 | [2] -0.028 | [3] 0.054 | [4] 0.037 | Nexturastat A -0.005 | vemurafenib 0.085 | [5] 0.035 | [6] 0.008 | givinostat 0.003 | barasertib 0.001

COA4 isoform 2 (UniProt Q9NYJ1)
inactive: [1] 0.066 | [2] -0.304 | [3] 0.054 | [4] -0.058 | Nexturastat A 0 | [5] 0.029 | [6] -0.013 | givinostat -0.007 | barasertib 0.083

CNN2 (UniProt Q99439)
inactive: [1] 0.034 | [2] -0.037 | [3] 0.035 | [4] 0.023 | Nexturastat A -0.042 | vemurafenib 0.085 | [5] 0.073 | [6] 0.003 | givinostat 0.063 | barasertib 0.077

CLCN6 isoform 5 (UniProt P51797)
inactive: [1] -0.085 | [2] 0.015 | [3] 0.029 | [4] -0.013 | Nexturastat A 0.198 | vemurafenib 0.076 | [5] 0.007 | [6] 0.053 | givinostat 0.109 | barasertib 0.099
